± gives the standard deviation of the averaged measurements. This is one part of the list.
Compound: Nc1nc2c(ncn2[C@@H]2O[C@H](COP(=O)(O)OP(=O)(O)OP(=O)(O)O)[C@@H](O)[C@H]2O)c(=O)[nH]1 [guanosine triphosphate]
Assay: NP40-soluble protein abundance relative to vehicle (solubility fold change) (ratio); higher = more soluble protein in presence of GTP
Outline: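 Eight concentrations, 0.1 to 10 mM, were tested on Jurkat crude lysate for 10 min at room temperature and then 3 min at 37 °C, in three independent experiments. The lysate was solubilised with 0.8% NP40 and benzonase, ultracentrifuged, and the supernatant TMT-labelled for LC-MS/MS. Each value is the fold change against the detergent-processed vehicle in its own replicate, from vsn-normalised intensities.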

Sequences of proteins named here, by UniProt entry; tags and fusion partners are left off. A change or cut given only in a name is not applied to a line headed by its entry.
UniProt Q9P035: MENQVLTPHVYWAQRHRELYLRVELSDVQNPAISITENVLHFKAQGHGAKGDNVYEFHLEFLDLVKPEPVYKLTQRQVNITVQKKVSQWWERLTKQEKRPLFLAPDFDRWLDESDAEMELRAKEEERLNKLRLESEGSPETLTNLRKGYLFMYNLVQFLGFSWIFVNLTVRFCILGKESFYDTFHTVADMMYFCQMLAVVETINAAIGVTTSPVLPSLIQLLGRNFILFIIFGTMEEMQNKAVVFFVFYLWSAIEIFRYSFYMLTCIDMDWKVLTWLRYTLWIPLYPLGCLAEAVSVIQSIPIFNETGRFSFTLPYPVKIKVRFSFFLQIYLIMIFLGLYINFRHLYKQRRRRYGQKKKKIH
UniProt Q8WWI1: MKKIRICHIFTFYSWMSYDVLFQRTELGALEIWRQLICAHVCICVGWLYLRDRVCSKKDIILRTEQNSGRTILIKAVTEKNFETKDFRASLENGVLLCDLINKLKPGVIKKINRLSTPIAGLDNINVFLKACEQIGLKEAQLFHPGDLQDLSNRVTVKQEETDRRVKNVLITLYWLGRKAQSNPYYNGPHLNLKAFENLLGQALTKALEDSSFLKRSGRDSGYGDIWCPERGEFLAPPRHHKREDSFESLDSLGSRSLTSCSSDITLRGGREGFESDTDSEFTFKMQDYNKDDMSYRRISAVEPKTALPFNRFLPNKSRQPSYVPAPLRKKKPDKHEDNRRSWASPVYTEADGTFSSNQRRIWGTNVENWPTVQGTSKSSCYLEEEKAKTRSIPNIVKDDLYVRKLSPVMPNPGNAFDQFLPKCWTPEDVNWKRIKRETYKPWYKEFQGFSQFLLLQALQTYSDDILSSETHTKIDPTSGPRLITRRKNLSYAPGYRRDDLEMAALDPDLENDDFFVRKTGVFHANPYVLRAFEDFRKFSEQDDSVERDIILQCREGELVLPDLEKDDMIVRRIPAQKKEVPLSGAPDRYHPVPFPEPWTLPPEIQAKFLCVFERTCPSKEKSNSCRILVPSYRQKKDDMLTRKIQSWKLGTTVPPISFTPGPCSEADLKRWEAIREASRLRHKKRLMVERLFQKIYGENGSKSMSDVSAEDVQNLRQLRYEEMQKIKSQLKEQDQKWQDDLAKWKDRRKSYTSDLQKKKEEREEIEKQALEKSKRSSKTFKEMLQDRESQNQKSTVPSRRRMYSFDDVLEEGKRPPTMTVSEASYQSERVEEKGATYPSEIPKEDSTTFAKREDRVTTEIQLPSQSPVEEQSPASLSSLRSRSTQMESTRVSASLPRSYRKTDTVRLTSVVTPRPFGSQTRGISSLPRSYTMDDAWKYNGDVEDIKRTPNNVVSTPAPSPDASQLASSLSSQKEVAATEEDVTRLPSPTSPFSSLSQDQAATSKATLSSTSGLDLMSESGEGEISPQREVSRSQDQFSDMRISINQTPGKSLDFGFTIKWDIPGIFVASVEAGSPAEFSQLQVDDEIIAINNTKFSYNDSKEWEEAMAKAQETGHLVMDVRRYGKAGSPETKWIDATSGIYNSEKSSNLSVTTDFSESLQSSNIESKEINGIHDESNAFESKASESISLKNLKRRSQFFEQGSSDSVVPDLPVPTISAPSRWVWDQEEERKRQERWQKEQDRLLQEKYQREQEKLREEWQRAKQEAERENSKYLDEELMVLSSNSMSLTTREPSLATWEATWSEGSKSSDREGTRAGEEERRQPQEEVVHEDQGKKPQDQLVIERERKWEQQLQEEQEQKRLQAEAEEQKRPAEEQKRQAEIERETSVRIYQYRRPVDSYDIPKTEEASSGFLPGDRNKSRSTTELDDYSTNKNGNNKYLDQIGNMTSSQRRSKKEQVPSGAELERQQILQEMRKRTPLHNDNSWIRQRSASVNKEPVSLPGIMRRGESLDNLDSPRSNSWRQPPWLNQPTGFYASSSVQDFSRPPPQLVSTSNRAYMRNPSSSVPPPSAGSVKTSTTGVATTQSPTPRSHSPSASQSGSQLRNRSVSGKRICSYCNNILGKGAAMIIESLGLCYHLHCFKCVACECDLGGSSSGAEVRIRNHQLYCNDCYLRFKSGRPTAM
UniProt Q3YEC7: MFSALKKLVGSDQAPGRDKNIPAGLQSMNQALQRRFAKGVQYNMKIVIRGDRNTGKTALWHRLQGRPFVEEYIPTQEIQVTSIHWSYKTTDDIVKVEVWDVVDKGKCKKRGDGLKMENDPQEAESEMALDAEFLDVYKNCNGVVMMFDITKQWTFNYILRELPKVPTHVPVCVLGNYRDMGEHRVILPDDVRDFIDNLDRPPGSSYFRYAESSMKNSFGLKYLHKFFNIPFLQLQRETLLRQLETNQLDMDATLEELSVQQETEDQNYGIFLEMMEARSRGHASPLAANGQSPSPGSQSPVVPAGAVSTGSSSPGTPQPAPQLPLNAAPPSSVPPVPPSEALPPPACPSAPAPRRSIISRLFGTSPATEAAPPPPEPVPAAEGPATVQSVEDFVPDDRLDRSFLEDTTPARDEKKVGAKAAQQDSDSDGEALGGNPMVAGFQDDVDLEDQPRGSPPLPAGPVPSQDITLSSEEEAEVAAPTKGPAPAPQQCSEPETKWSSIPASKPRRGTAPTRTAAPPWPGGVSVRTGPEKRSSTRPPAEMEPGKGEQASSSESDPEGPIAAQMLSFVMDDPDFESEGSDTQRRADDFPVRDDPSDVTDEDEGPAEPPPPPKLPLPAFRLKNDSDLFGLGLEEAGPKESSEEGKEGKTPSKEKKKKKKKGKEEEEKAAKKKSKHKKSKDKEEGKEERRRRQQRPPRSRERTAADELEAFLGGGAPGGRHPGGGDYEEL
UniProt P51648: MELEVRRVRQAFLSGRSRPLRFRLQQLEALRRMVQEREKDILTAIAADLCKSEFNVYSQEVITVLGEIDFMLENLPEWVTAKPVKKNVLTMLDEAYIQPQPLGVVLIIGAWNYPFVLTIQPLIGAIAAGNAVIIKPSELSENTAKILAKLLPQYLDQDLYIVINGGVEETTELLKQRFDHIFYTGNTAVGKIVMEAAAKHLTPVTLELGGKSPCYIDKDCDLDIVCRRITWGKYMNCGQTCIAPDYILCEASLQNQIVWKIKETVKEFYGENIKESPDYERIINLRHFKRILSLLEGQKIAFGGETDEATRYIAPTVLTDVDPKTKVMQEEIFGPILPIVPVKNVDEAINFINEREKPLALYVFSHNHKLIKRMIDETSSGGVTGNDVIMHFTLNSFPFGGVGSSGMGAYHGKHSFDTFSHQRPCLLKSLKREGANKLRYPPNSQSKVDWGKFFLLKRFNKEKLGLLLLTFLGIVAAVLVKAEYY
UniProt Q8N9N7: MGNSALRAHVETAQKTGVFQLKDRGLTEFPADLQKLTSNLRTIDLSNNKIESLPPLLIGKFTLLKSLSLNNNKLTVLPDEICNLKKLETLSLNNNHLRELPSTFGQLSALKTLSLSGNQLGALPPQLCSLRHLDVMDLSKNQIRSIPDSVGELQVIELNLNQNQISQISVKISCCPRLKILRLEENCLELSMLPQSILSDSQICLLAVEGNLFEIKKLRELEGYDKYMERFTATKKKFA
UniProt P67812: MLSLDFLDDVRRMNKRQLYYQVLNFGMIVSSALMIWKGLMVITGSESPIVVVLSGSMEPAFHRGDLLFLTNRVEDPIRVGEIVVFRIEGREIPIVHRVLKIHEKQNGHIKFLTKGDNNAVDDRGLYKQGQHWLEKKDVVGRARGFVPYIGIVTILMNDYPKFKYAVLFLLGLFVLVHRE
UniProt O75821, whole entry: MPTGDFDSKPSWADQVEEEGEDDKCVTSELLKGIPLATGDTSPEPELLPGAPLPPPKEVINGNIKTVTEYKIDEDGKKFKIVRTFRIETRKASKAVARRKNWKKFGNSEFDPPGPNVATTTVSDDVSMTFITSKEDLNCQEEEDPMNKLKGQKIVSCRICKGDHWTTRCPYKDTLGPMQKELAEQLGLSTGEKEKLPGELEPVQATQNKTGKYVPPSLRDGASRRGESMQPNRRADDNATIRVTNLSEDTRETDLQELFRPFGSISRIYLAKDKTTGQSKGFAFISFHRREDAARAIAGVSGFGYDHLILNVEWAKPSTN
UniProt P31321, whole entry: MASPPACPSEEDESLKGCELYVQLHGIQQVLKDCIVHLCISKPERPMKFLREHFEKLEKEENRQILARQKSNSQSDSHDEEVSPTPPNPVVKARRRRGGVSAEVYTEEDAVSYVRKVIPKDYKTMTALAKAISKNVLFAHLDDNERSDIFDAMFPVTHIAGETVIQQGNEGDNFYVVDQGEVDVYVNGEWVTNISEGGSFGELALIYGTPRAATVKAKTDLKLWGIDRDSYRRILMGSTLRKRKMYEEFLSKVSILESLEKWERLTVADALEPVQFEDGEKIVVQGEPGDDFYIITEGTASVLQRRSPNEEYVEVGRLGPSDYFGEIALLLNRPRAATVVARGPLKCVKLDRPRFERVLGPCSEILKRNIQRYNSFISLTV
UniProt Q8NBJ7: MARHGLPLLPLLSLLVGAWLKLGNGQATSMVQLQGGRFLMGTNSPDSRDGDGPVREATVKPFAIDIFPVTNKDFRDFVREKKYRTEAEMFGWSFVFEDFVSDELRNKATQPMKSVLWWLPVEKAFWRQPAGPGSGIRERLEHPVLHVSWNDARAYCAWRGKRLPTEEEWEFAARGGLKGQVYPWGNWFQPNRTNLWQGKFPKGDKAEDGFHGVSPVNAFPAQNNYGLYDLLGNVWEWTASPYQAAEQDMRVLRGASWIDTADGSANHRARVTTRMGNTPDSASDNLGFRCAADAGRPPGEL
UniProt Q96IG2: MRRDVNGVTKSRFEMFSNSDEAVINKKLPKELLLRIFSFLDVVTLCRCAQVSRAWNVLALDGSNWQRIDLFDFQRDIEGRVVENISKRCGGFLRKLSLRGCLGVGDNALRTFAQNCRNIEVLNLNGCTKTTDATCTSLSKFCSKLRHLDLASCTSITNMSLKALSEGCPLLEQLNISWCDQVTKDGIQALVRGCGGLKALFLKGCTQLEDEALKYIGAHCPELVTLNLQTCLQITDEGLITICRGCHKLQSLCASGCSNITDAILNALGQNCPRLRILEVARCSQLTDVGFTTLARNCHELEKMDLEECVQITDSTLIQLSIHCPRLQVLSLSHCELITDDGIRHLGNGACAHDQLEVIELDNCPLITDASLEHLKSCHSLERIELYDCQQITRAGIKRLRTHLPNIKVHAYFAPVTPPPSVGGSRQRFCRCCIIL
UniProt Q8TCD5: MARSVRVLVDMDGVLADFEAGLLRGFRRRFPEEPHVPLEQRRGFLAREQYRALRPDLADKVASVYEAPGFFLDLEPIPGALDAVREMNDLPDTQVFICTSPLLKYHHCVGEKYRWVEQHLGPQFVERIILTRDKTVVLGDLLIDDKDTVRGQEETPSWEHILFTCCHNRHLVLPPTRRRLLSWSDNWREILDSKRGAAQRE
UniProt Q96GQ5: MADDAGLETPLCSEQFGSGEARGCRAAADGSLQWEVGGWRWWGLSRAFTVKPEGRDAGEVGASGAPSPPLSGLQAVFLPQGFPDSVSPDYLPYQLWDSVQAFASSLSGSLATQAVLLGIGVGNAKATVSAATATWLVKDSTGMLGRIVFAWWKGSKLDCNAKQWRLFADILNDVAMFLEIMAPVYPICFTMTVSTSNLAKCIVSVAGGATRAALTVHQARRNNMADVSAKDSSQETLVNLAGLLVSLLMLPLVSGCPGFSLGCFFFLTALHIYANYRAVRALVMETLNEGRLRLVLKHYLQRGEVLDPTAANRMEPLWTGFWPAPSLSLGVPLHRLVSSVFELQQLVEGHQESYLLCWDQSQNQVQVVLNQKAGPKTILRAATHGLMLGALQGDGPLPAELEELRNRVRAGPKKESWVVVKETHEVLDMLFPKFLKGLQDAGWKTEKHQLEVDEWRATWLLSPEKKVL
UniProt Q9NVS9: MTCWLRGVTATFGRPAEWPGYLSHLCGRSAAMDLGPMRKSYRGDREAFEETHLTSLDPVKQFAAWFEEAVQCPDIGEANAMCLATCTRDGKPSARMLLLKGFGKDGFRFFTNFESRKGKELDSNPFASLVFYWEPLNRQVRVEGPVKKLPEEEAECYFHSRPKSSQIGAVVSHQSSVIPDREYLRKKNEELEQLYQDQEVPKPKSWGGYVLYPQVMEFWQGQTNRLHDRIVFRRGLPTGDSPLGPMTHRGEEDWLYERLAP
UniProt Q9Y296, whole entry: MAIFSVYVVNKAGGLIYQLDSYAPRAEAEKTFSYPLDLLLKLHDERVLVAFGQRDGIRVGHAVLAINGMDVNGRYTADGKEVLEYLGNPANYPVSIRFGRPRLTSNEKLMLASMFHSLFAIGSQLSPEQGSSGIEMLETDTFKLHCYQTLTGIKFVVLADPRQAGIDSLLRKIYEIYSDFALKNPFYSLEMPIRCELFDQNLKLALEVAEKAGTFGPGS

“H3BPZ1 and related entries (UniProt Q9P035)” gave an NP40-soluble protein abundance (concentration: 0.1mM) of 1.01 ± 0.025, an NP40-soluble protein abundance (concentration: 0.5mM) of 1.04 ± 0.11 and an NP40-soluble protein abundance (concentration: 1mM) of 0.872 ± 0.052. The NP40-soluble protein abundance (concentration: 2mM) was 0.904 ± 0.092, the NP40-soluble protein abundance (concentration: 4mM) was 0.926 ± 0.082 and the NP40-soluble protein abundance (concentration: 6mM) was 0.96 ± 0.021. It also gave an NP40-soluble protein abundance (concentration: 8mM) of 0.889 ± 0.083 and an NP40-soluble protein abundance (concentration: 10mM) of 0.846 ± 0.16.
With “J3KP06 and related entries (UniProt Q8WWI1)” the NP40-soluble protein abundance (concentration: 0.1mM) was 1.249 ± 0.00018, the NP40-soluble protein abundance (concentration: 0.5mM) was 1.3 ± 0.013 and the NP40-soluble protein abundance (concentration: 1mM) was 1.379 ± 0.011. It also gave an NP40-soluble protein abundance (concentration: 2mM) of 1.42 ± 0.04, an NP40-soluble protein abundance (concentration: 4mM) of 1.57 ± 0.048 and an NP40-soluble protein abundance (concentration: 6mM) of 1.53 ± 0.016. For the same target, the NP40-soluble protein abundance (concentration: 8mM) was 1.66 ± 0.091 and the NP40-soluble protein abundance (concentration: 10mM) was 1.71 ± 0.046.
“H0Y4Z8 and related entries (UniProt Q3YEC7)” gave an NP40-soluble protein abundance (concentration: 0.1mM) of 1.01 ± 0.02, an NP40-soluble protein abundance (concentration: 0.5mM) of 1.02 ± 0.045 and an NP40-soluble protein abundance (concentration: 1mM) of 1.01 ± 0.045. The NP40-soluble protein abundance (concentration: 2mM) was 0.978 ± 0.034, the NP40-soluble protein abundance (concentration: 4mM) was 0.984 ± 0.046 and the NP40-soluble protein abundance (concentration: 6mM) was 0.956 ± 0.053. The NP40-soluble protein abundance (concentration: 8mM) was 0.9851 ± 0.0074 and the NP40-soluble protein abundance (concentration: 10mM) was 0.971 ± 0.037.
For “J3QRD1 and related entries (UniProt P51648)”, the NP40-soluble protein abundance (concentration: 0.1mM) was 1.04 ± 0.02, the NP40-soluble protein abundance (concentration: 0.5mM) was 1.09 ± 0.071 and the NP40-soluble protein abundance (concentration: 1mM) was 0.941 ± 0.065. The NP40-soluble protein abundance (concentration: 2mM) was 1.02 ± 0.085, the NP40-soluble protein abundance (concentration: 4mM) was 0.937 ± 0.069 and the NP40-soluble protein abundance (concentration: 6mM) was 0.964 ± 0.058. For the same target, the NP40-soluble protein abundance (concentration: 8mM) was 0.896 ± 0.041 and the NP40-soluble protein abundance (concentration: 10mM) was 0.898 ± 0.058.
“H3BSW0 and related entries (UniProt Q8N9N7)” gave an NP40-soluble protein abundance (concentration: 0.1mM) of 0.984 ± 0.013, an NP40-soluble protein abundance (concentration: 0.5mM) of 1 ± 0.038 and an NP40-soluble protein abundance (concentration: 1mM) of 0.957 ± 0.028. The NP40-soluble protein abundance (concentration: 2mM) was 0.914 ± 0.022, the NP40-soluble protein abundance (concentration: 4mM) was 0.884 ± 0.041 and the NP40-soluble protein abundance (concentration: 6mM) was 0.89 ± 0.029. For the same target, the NP40-soluble protein abundance (concentration: 8mM) was 0.915 ± 0.03 and the NP40-soluble protein abundance (concentration: 10mM) was 0.896 ± 0.024.
For “H0YKT4 and related entries (UniProt P67812)”, the NP40-soluble protein abundance (concentration: 0.1mM) was 1.01 ± 0.036, the NP40-soluble protein abundance (concentration: 0.5mM) was 1.04 ± 0.046 and the NP40-soluble protein abundance (concentration: 1mM) was 0.909 ± 0.038. It also gave an NP40-soluble protein abundance (concentration: 2mM) of 0.923 ± 0.04, an NP40-soluble protein abundance (concentration: 4mM) of 0.91 ± 0.033 and an NP40-soluble protein abundance (concentration: 6mM) of 0.924 ± 0.028. It also gave an NP40-soluble protein abundance (concentration: 8mM) of 0.899 ± 0.018 and an NP40-soluble protein abundance (concentration: 10mM) of 0.861 ± 0.059.
Target “K7EL60 and related entries (UniProt O75821)” has an NP40-soluble protein abundance (concentration: 0.1mM) of 0.992 ± 0.019, an NP40-soluble protein abundance (concentration: 0.5mM) of 0.99 ± 0.03 and an NP40-soluble protein abundance (concentration: 1mM) of 1.04 ± 0.063. For the same target, the NP40-soluble protein abundance (concentration: 2mM) was 1.05 ± 0.047, the NP40-soluble protein abundance (concentration: 4mM) was 1.18 ± 0.12 and the NP40-soluble protein abundance (concentration: 6mM) was 1.3 ± 0.14. For the same target, the NP40-soluble protein abundance (concentration: 8mM) was 1.46 ± 0.25 and the NP40-soluble protein abundance (concentration: 10mM) was 1.59 ± 0.29.
“H7BYW5 and related entries (UniProt P31321)” showed an NP40-soluble protein abundance (concentration: 0.1mM) of 0.997 ± 0.11, an NP40-soluble protein abundance (concentration: 0.5mM) of 1.06 ± 0.1 and an NP40-soluble protein abundance (concentration: 1mM) of 1.04 ± 0.066. For the same target, the NP40-soluble protein abundance (concentration: 2mM) was 1.06 ± 0.031, the NP40-soluble protein abundance (concentration: 4mM) was 1.09 ± 0.023 and the NP40-soluble protein abundance (concentration: 6mM) was 1.01 ± 0.045. It also gave an NP40-soluble protein abundance (concentration: 8mM) of 1.12 ± 0.041 and an NP40-soluble protein abundance (concentration: 10mM) of 1.014 ± 0.0086.
With “J3KQJ1 and related entries (UniProt Q8NBJ7)” the NP40-soluble protein abundance (concentration: 0.1mM) was 1 ± 0.067, the NP40-soluble protein abundance (concentration: 0.5mM) was 0.97 ± 0.077 and the NP40-soluble protein abundance (concentration: 1mM) was 0.97 ± 0.081. For the same target, the NP40-soluble protein abundance (concentration: 2mM) was 0.921 ± 0.086, the NP40-soluble protein abundance (concentration: 4mM) was 0.913 ± 0.066 and the NP40-soluble protein abundance (concentration: 6mM) was 0.939 ± 0.1. For the same target, the NP40-soluble protein abundance (concentration: 8mM) was 0.923 ± 0.069 and the NP40-soluble protein abundance (concentration: 10mM) was 0.878 ± 0.051.
“J3KTA1 and related entries (UniProt Q96IG2)” was tested, and the NP40-soluble protein abundance (concentration: 0.1mM) was 1.13 ± 0.03, the NP40-soluble protein abundance (concentration: 0.5mM) was 1.08 ± 0.029 and the NP40-soluble protein abundance (concentration: 1mM) was 0.991 ± 0.076. For the same target, the NP40-soluble protein abundance (concentration: 2mM) was 1.03 ± 0.13, the NP40-soluble protein abundance (concentration: 4mM) was 1.01 ± 0.073 and the NP40-soluble protein abundance (concentration: 6mM) was 1.03 ± 0.024. The NP40-soluble protein abundance (concentration: 8mM) was 0.911 ± 0.029 and the NP40-soluble protein abundance (concentration: 10mM) was 0.863 ± 0.094.
With “H0Y9X1 and related entries (UniProt Q96EY4)” the NP40-soluble protein abundance (concentration: 0.1mM) was 1.03 ± 0.069, the NP40-soluble protein abundance (concentration: 0.5mM) was 0.968 ± 0.061 and the NP40-soluble protein abundance (concentration: 1mM) was 1.02 ± 0.061. The NP40-soluble protein abundance (concentration: 2mM) was 1.01 ± 0.12, the NP40-soluble protein abundance (concentration: 4mM) was 1.18 ± 0.15 and the NP40-soluble protein abundance (concentration: 6mM) was 1.22 ± 0.082. For the same target, the NP40-soluble protein abundance (concentration: 8mM) was 1.43 ± 0.099 and the NP40-soluble protein abundance (concentration: 10mM) was 1.48 ± 0.12.
With “J3KRC4 and related entries (UniProt Q8TCD5)” the NP40-soluble protein abundance (concentration: 0.1mM) was 0.986 ± 0.054, the NP40-soluble protein abundance (concentration: 0.5mM) was 0.977 ± 0.081 and the NP40-soluble protein abundance (concentration: 1mM) was 0.958 ± 0.082. For the same target, the NP40-soluble protein abundance (concentration: 2mM) was 0.925 ± 0.096, the NP40-soluble protein abundance (concentration: 4mM) was 0.863 ± 0.09 and the NP40-soluble protein abundance (concentration: 6mM) was 0.919 ± 0.11. It also gave an NP40-soluble protein abundance (concentration: 8mM) of 0.839 ± 0.04 and an NP40-soluble protein abundance (concentration: 10mM) of 0.841 ± 0.046.
In the case of “H3BSM7 and related entries (UniProt Q96GQ5)”, the NP40-soluble protein abundance (concentration: 0.1mM) is reported as 1.05 ± 0.046, the NP40-soluble protein abundance (concentration: 0.5mM) is reported as 1.043 ± 0.0077 and the NP40-soluble protein abundance (concentration: 1mM) is reported as 0.977 ± 0.029. The NP40-soluble protein abundance (concentration: 2mM) was 0.986 ± 0.057, the NP40-soluble protein abundance (concentration: 4mM) was 0.996 ± 0.061 and the NP40-soluble protein abundance (concentration: 6mM) was 0.984 ± 0.076. It also gave an NP40-soluble protein abundance (concentration: 8mM) of 0.97 ± 0.017 and an NP40-soluble protein abundance (concentration: 10mM) of 0.924 ± 0.075.
For “H3BT12 and related entries (UniProt Q9UK73)”, the NP40-soluble protein abundance (concentration: 0.1mM) was 1.07 ± 0.2, the NP40-soluble protein abundance (concentration: 0.5mM) was 1.06 ± 0.097 and the NP40-soluble protein abundance (concentration: 1mM) was 1.13 ± 0.058. For the same target, the NP40-soluble protein abundance (concentration: 2mM) was 1.11 ± 0.15, the NP40-soluble protein abundance (concentration: 4mM) was 1.04 ± 0.16 and the NP40-soluble protein abundance (concentration: 6mM) was 1.07 ± 0.26. The NP40-soluble protein abundance (concentration: 8mM) was 1.06 ± 0.23 and the NP40-soluble protein abundance (concentration: 10mM) was 1.03 ± 0.28.
Target “J3QQV6 and related entries (UniProt Q9NVS9)” has an NP40-soluble protein abundance (concentration: 0.1mM) of 0.932 ± 0.045, an NP40-soluble protein abundance (concentration: 0.5mM) of 0.913 ± 0.054 and an NP40-soluble protein abundance (concentration: 1mM) of 0.941 ± 0.055. It also gave an NP40-soluble protein abundance (concentration: 2mM) of 0.892 ± 0.06, an NP40-soluble protein abundance (concentration: 4mM) of 0.895 ± 0.065 and an NP40-soluble protein abundance (concentration: 6mM) of 0.889 ± 0.069. The NP40-soluble protein abundance (concentration: 8mM) was 0.873 ± 0.07 and the NP40-soluble protein abundance (concentration: 10mM) was 0.884 ± 0.072.
“J3KP27 and related entries (UniProt Q9Y296)” gave an NP40-soluble protein abundance (concentration: 0.1mM) of 0.979 ± 0.05, an NP40-soluble protein abundance (concentration: 0.5mM) of 0.975 ± 0.081 and an NP40-soluble protein abundance (concentration: 1mM) of 0.94 ± 0.06. For the same target, the NP40-soluble protein abundance (concentration: 2mM) was 0.932 ± 0.065, the NP40-soluble protein abundance (concentration: 4mM) was 0.92 ± 0.052 and the NP40-soluble protein abundance (concentration: 6mM) was 0.895 ± 0.081. It also gave an NP40-soluble protein abundance (concentration: 8mM) of 0.92 ± 0.011 and an NP40-soluble protein abundance (concentration: 10mM) of 0.884 ± 0.029.
